Source: article PMC11649789
Like-named read-outs stand apart in the source and are kept apart here. These are yes or no findings as the source states them, for the method shown. In cells and extracts the contact can be indirect. A yes stands for co-enrichment or nearness to the bait. Other partners may have been found.

The chains behind the UniProt entries cited, without tags or fusion partners.
UniProt P05198: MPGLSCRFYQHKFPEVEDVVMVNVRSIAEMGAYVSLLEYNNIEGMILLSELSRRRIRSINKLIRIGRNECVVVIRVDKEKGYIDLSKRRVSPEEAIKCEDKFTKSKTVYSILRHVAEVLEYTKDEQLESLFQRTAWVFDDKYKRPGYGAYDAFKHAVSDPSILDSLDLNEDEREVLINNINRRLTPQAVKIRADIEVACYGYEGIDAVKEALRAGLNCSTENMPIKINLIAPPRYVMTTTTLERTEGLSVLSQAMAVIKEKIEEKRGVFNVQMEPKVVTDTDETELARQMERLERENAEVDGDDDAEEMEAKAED
UniProt O75340: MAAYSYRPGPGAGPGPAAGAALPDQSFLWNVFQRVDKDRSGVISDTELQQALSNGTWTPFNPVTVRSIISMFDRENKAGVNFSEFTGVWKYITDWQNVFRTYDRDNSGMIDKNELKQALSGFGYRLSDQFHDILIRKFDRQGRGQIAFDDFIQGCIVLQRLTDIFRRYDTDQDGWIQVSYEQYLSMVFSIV
UniProt Q8WUM4: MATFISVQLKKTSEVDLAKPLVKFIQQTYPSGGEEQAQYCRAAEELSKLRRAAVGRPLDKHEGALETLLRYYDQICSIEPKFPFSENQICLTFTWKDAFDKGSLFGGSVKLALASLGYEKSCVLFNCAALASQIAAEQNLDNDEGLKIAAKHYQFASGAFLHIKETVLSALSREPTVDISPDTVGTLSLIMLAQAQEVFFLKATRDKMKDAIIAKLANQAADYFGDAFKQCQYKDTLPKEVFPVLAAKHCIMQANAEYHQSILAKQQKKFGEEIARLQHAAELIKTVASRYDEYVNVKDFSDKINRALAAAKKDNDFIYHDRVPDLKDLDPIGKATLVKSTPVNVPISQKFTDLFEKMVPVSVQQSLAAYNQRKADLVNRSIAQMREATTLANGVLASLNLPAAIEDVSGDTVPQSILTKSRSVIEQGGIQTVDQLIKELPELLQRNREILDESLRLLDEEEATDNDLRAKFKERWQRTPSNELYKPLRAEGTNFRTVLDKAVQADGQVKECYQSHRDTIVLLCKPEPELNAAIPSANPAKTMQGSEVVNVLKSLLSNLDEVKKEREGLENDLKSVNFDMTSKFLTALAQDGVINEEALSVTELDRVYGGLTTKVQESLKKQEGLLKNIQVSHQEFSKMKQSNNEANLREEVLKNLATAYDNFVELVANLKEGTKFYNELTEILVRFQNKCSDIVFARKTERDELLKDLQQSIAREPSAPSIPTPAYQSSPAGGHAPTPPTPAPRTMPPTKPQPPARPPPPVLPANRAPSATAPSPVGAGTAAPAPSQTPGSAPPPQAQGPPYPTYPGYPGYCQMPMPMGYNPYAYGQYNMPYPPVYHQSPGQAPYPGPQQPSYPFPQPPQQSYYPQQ
UniProt P19525: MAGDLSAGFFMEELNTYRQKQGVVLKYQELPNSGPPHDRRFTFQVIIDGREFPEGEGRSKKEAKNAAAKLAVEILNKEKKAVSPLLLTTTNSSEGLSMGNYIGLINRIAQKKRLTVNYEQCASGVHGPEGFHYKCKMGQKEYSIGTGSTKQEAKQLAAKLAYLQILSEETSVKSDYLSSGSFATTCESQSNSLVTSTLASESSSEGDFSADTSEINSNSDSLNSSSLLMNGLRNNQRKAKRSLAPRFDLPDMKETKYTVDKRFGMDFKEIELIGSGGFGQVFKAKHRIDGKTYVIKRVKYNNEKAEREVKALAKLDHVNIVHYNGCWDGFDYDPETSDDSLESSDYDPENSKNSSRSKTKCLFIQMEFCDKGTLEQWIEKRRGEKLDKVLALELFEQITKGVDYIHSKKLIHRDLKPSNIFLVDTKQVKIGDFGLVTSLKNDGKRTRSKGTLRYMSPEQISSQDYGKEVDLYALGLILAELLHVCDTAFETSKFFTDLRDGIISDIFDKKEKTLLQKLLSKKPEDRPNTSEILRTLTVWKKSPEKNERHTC
UniProt Q9UQN3: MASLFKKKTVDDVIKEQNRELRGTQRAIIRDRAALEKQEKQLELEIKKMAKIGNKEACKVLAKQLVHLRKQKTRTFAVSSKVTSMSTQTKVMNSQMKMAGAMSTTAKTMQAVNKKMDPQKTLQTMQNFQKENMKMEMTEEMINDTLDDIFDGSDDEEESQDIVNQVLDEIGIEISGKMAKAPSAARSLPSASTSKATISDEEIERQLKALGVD

Key:
[1] = biological target: APEX2-eIF2α (UniProt P05198); assay: proximity labelling; APEX2-eIF2α in HEK293T cells, control or 1 mM LLOMe for 1 h; biotin-phenol, 1 min pulse of 1 mM H2O2; streptavidin beads, LC/MS/MS DIA; three independent experiments
[2] = biological target: APEX2-eIF2α (UniProt P05198); assay: as above; remark: listed apart in the source

Molecule | binding [1] | binding [2]
ALG2 (Apoptosis-Linked Gene-2), endogenous (from UniProt O75340 1-191) | binds | 
ALIX (ALG-2-Interacting Protein X), endogenous (from UniProt Q8WUM4 1-868) | binds | 
PKR (Protein Kinase R), endogenous (from UniProt P19525 1-551) | binds | 
PACT, protein activator of PKR, endogenous (protein, UniProt O75569 1-313) MSQSRHRAEAPPLEREDSGTFSLGKMITAKPGKTPIQVLHEYGMKTKNIPVYECERSDVQIHVPTFTFRVTVGDITCTGEGTSKKLAKHRAAEAAINILKANASICFAVPDPLMPDPSKQPKNQLNPIGSLQELAIHHGWRLPEYTLSQEGGPAHKREYTTICRLESFMETGKGASKKQAKRNAAEKFLAKFSNISPENHISLTNVVGHSLGCTWHSLRNSPGEKINLLKRSLLSIPNTDYIQLLSEIAKEQGFNITYLDIDELSANGQYQCLAELSTSPITVCHGSGISCGNAQSDAAHNALQYLKIIAERK |  | binds

Next, values leading:

binding [1] | binding [2] | Molecule
binds |  | CHMP2B, endogenous (from UniProt Q9UQN3 1-213)
 | binds | CHMP4B, endogenous (protein, UniProt Q9H444 1-224) MSVFGKLFGAGGGKAGKGGPTPQEAIQRLRDTEEMLSKKQEFLEKKIEQELTAAKKHGTKNKRAALQALKRKKRYEKQLAQIDGTLSTIEFQREALENANTNTEVLKNMGYAAKAMKAAHDNMDIDKVDELMQDIADQQELAEEISTAISKPVGFGEEFDEDELMAELEELEQEELDKNLLEISGPETVPLPNVPSIALPSKPAKKKEEEDDDMKELENWAGSM
